Results: PubChem BioAssay AID624297 (National Center for Advancing Translational Sciences (NCATS), 2012)
In all, about 340,000 compounds went through this assay and about 6,200 (1.8%) were called active. This list was built around the results that the source calls inconclusive (neither active nor inactive); the mix of calls is not that of the screen. Calls come from the whole dose curve; as a rule, active = well fitted activation curve with a large enough effect; inconclusive = small, poorly fitted or top-dose-only effect; inactive = no such curve, though single readings can be large or run the other way. Where the call is inconclusive, the potency comes from a doubtful curve fit.

experiment: A quantitative high throughput screen for small molecules that induce DNA re-replication in SW480 colon adenocarcinoma cells.; note: nearly all actives have a fitted effect of over 55% in size; settings: Hoechst DNA content imaging, 48 h; series mostly up to 46.1 µM
Method in brief: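 Readout is total intensity of Hoechst-stained nuclei, excited at 405 nm and collected at 500-530 nm. Compound treatment lasted 48 hr at 37 C in 5% CO2 before staining.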
Potency is the fitted concentration of half-maximal effect.

Row | Compound | Potency
1 | CCOC(=O)c1c(S(=O)(=O)NCc2ccco2)c(C)n(C)c1C | inactive
2 | O=C(COC(=O)c1cnccn1)c1ccc(Cl)c([N+](=O)[O-])c1 | inconclusive: 32.6 µM [activator, partial curve, poor fit]
3 | CCc1nc(Cl)c(C#N)c2c1CSC(C)(C)C2 | inconclusive: 29.1 µM [activator, single point]
4 | S=C(Nc1cccc(Cl)c1Cl)N1CCC2(CC1)OCCO2 | inactive
5 | CCn1c(C)cc(/C=C2\NC(=O)N(CC(=O)Nc3cccc(C)c3)C2=O)c1C | inactive
6 | CCn1c(CSCc2ccc(C)cc2)nnc1SCC(=O)N1CCN(c2ccccc2)CC1 | inconclusive: 5.17 µM [activator, single point]
7 | Cc1c(Cl)cccc1NC(=S)NCC(c1cccnc1)N(C)C (stereo unspecified) | inactive
8 | COc1ccc2c(c1)nc(SCC(=O)C(C)(C)C)n2C | inconclusive: 29.1 µM [activator, single point]
9 | Cc1ccc(C(O)(COC(=O)C(C)C)COC(=O)C(C)C)c(O)c1 | inconclusive: 20.6 µM [activator, single point]
10 | Cc1ccc(S(=O)(=O)C2(C(=O)N3CCN(C4CCCCC4)CC3)CC2)cc1 | inactive
11 | Cc1cc(C)c(-c2c(O)c3cccnc3n(C)c2=O)c(C)c1 | inconclusive: 29.1 µM [activator, single point]
12 | COc1ccc(-c2cc(C(=O)Nc3c(C)n(C)n(-c4ccccc4)c3=O)no2)cc1 | inactive
13 | CCOC(=O)NC(NC(=S)Nc1ccc(OCC)cc1)C(Cl)(Cl)Cl (stereo unspecified) | inactive
14 | O=C(c1cc2nc(-c3ccc(F)cc3)cc(C(F)(F)F)n2n1)N1CCCCC1c1cccnc1 (stereo unspecified) | inconclusive: 29.1 µM [activator, partial curve, poor fit]
15 | CC1(C)Cc2cccc(OCC(=O)Nc3ccccc3C(F)(F)F)c2O1 | inconclusive: 29.1 µM [activator, single point]
16 | CC1(C)CC(=O)N(Cc2ccccc2)C(=O)C1 | active: 9.2 µM
17 | Cc1nn(C)c(C(=O)Nc2ccc3c(c2)OCO3)c1[N+](=O)[O-] | inconclusive: 16.4 µM [activator, partial curve, poor fit]
18 | CCc1ccc(N(CC)C(=O)c2cn(C)c(=O)c3ccccc23)cc1 | inactive
19 | CCN(CC(=O)Nc1c(F)cccc1F)C(=O)CNC(=O)c1cccc(C)c1 | inconclusive: 4.47 µM [activator, full curve, poor fit]
20 | CCOc1cc(CNc2ccc3c(c2)OCCO3)cc(Br)c1OC | active: 7.31 µM
21 | CN(C)c1cc(NC(=O)CNC(C)(C)CC(C)(C)C)c2ccccc2n1 | inconclusive: 20.6 µM [activator, single point]
22 | O=C(Nc1nnc(-c2ccccc2)o1)c1cc(-c2cccs2)nc2ccccc12 | inconclusive: 16.4 µM [activator, partial curve, poor fit]
23 | Cc1cc(C)n2nc(C(=O)Nc3cccc(S(=O)(=O)N(C)c4ccccc4)c3)nc2n1 | inactive

Row | Compound | Potency
24 | CCc1cc2cccc(C)c2nc1SCC(=O)N1CCN(C(=O)c2ccco2)CC1 | inactive
25 | Cc1cc(C)c(/C=C2\C(=O)Nc3ccccc32)[nH]1 | inconclusive: 1.26 µM [activator, single point]
26 | Cc1ccccc1N(CC(=O)NCCc1ccccc1)C(=O)c1csnn1 | inactive
27 | Cc1[nH]nc(-c2cccnc2)c1N=NN(C)C | active: 2.59 µM
28 | COc1ccc(S(=O)(=O)N2CCCOC2CNC(=O)C(=O)NCc2ccco2)cc1C (stereo unspecified) | inconclusive: 0.58 µM [activator, full curve, poor fit]
29 | COc1cc(N2Cc3ccccc3C2)ccc1C=O | inactive
30 | Nc1ccccc1Sc1ccc(C(=O)c2ccccc2C(=O)O)cc1[N+](=O)[O-] | inconclusive: 29.1 µM [activator, single point]
31 | O=C(CNC(=O)c1ccccc1F)OCCOc1cccc(Cl)c1 | inconclusive: 5.8 µM [activator, single point]
32 | O=C1CC(c2ccc(F)cc2)CC2=C1C=Nc1ccccc1N2 (stereo unspecified) | inactive
33 | O=[N+]([O-])c1cncc([N+](=O)[O-])c1Nc1ccccc1Cl | inconclusive: 23.1 µM [activator, single point]
34 | COc1ccc(NC(=O)COc2ccccc2Cl)cc1S(=O)(=O)N1CCCCC1 | inconclusive: 29.1 µM [activator, single point]
35 | CCc1ccc(N2CC(C(=O)OCc3nc4ccsc4c(=O)[nH]3)CC2=O)cc1 (stereo unspecified) | inconclusive: 29.1 µM [activator, single point]
36 | CSc1nc2ccc(S(=O)(=O)N3CCc4ccccc43)cc2s1 | inconclusive: 20.6 µM [activator, single point]
37 | CCC(=O)N1CCc2cc(S(=O)(=O)NC(CC(C)C)C(=O)N3CCc4ccccc43)ccc21 (stereo unspecified) | inconclusive: 29.1 µM [activator, single point]
38 | O=C(Nc1ccc(F)cc1)Nc1csc2ccccc12 | inconclusive: 5.8 µM [activator, full curve, poor fit]
39 | O=C(Nc1ccccc1)OCCNC(=O)c1cccc(Cl)c1 | inconclusive: 32.6 µM [activator, partial curve, poor fit]
40 | CCN(CC)CC(=O)Nc1sc2c(c1C(=O)c1ccccc1OC)CCC2 | inconclusive: 29.1 µM [activator, single point]
41 | O=C(CN(C1CC1)S(=O)(=O)c1ccc(S(=O)(=O)NC2CCCCC2)cc1)Nc1ccccc1 | inconclusive: 6.51 µM [activator, partial curve, poor fit]
42 | Cc1ccc(SC2=C(Sc3ccc(C)cc3)C(=O)c3ccccc3C2=O)cc1 | active: 8.2 µM
43 | CCOc1ccc(S(=O)(=O)N2CCN(c3ccccc3F)CC2)c2cccnc12 | active: 16.4 µM
44 | COc1ccc2cc(CN(CC3CCCO3)C(=O)Nc3ccccc3)c(=O)[nH]c2c1 (stereo unspecified) | inactive
45 | COc1ccc([C@H]2CC(=O)C=C(c3ccc(Cl)cc3C)C2)cc1 | inconclusive: 29.1 µM [activator, single point]
46 | Cc1ccc(C)c(NC(=O)CN(C)C(=O)c2cc([N+](=O)[O-])ccc2N2CCOCC2)c1 | inactive

Three compounds from above, ordered by formula weight, ascending.
Row | Compound | Potency
45 | COc1ccc([C@H]2CC(=O)C=C(c3ccc(Cl)cc3C)C2)cc1 | inconclusive: 29.1 µM [activator, single point]
13 | CCOC(=O)NC(NC(=S)Nc1ccc(OCC)cc1)C(Cl)(Cl)Cl (stereo unspecified) | inactive
28 | COc1ccc(S(=O)(=O)N2CCCOC2CNC(=O)C(=O)NCc2ccco2)cc1C (stereo unspecified) | inconclusive: 0.58 µM [activator, full curve, poor fit]
